These are yes or no findings as the source states them, for the method shown. Binding can be weak; no strength is given.

Protein sequences, listed by entry. Tags and fused reporters are not part of them. Lines headed by an entry give the natural chain unless they say otherwise; changes in a name come on top. Residues count along the entry.
UniProt P40238, residues 26-635: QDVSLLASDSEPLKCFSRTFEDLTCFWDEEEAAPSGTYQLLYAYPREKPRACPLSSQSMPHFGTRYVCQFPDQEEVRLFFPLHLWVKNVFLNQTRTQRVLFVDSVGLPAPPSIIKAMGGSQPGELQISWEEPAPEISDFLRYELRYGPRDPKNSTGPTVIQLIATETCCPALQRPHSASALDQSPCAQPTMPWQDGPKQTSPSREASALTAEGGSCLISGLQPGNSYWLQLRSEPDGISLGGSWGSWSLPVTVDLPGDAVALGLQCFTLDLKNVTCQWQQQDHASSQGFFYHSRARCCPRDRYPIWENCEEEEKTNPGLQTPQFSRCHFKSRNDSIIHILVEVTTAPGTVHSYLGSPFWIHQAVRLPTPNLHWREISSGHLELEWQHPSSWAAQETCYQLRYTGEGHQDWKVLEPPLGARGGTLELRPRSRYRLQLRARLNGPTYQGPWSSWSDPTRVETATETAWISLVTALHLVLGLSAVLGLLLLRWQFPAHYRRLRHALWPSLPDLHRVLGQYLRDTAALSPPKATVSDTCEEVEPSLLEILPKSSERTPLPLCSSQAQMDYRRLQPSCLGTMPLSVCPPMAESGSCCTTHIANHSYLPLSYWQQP
UniProt P52333: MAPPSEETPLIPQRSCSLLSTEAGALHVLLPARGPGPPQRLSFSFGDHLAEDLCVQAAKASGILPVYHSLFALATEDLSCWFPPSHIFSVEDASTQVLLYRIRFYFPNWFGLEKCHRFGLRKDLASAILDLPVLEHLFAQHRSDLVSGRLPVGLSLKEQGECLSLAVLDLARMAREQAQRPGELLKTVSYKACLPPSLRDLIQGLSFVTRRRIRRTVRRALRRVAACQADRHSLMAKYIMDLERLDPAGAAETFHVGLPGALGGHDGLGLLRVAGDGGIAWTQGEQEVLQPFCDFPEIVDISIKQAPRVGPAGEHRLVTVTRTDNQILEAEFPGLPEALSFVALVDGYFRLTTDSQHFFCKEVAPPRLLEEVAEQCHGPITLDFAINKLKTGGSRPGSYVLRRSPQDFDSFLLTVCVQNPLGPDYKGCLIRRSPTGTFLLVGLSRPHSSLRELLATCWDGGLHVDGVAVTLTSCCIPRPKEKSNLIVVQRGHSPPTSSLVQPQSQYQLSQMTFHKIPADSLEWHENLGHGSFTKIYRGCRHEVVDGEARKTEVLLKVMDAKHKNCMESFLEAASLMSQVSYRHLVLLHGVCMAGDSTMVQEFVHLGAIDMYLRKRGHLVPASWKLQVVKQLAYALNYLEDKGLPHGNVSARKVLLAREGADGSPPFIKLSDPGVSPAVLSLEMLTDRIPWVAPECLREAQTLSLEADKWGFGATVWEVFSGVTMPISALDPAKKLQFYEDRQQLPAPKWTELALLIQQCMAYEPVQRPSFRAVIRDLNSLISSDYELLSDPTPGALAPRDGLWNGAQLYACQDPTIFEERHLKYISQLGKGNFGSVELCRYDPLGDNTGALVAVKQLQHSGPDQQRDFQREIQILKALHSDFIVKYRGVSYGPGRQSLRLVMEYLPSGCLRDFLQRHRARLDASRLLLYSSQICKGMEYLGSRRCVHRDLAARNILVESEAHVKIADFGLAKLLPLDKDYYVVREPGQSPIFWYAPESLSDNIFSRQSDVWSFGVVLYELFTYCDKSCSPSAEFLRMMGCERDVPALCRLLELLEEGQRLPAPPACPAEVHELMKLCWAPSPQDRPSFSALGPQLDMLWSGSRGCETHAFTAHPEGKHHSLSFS

Assay [1] addresses HaloTag-mTagBFP-TPOR (UniProt P40238). In words: FRAP on micropatterned cells.
Assay [2] shares this target. In words: live cell micropatterning.

Consider “JAK3-FS (FERM/SH2 domains of JAK3 with mEGFP) (from UniProt P52333) (domain or fragment)”, for which the binding entry with HaloTag-mTagBFP-TPOR [1] and in the assay with HaloTag-mTagBFP-TPOR [2] was “binds” throughout.

The values above are taken from publication doi:10.1101/2023.10.04.560821.
